Assay results: article PMC3390413
These are yes or no findings as the source states them, for the method shown. Binding seen in cells or lysates may run through a third protein. Some results given as binding are weak or reduced against the parent protein; the word gives no strength. Sequences can lack the tags named with a protein.

The chains behind the UniProt entries cited, without tags or fusion partners.
UniProt O15027: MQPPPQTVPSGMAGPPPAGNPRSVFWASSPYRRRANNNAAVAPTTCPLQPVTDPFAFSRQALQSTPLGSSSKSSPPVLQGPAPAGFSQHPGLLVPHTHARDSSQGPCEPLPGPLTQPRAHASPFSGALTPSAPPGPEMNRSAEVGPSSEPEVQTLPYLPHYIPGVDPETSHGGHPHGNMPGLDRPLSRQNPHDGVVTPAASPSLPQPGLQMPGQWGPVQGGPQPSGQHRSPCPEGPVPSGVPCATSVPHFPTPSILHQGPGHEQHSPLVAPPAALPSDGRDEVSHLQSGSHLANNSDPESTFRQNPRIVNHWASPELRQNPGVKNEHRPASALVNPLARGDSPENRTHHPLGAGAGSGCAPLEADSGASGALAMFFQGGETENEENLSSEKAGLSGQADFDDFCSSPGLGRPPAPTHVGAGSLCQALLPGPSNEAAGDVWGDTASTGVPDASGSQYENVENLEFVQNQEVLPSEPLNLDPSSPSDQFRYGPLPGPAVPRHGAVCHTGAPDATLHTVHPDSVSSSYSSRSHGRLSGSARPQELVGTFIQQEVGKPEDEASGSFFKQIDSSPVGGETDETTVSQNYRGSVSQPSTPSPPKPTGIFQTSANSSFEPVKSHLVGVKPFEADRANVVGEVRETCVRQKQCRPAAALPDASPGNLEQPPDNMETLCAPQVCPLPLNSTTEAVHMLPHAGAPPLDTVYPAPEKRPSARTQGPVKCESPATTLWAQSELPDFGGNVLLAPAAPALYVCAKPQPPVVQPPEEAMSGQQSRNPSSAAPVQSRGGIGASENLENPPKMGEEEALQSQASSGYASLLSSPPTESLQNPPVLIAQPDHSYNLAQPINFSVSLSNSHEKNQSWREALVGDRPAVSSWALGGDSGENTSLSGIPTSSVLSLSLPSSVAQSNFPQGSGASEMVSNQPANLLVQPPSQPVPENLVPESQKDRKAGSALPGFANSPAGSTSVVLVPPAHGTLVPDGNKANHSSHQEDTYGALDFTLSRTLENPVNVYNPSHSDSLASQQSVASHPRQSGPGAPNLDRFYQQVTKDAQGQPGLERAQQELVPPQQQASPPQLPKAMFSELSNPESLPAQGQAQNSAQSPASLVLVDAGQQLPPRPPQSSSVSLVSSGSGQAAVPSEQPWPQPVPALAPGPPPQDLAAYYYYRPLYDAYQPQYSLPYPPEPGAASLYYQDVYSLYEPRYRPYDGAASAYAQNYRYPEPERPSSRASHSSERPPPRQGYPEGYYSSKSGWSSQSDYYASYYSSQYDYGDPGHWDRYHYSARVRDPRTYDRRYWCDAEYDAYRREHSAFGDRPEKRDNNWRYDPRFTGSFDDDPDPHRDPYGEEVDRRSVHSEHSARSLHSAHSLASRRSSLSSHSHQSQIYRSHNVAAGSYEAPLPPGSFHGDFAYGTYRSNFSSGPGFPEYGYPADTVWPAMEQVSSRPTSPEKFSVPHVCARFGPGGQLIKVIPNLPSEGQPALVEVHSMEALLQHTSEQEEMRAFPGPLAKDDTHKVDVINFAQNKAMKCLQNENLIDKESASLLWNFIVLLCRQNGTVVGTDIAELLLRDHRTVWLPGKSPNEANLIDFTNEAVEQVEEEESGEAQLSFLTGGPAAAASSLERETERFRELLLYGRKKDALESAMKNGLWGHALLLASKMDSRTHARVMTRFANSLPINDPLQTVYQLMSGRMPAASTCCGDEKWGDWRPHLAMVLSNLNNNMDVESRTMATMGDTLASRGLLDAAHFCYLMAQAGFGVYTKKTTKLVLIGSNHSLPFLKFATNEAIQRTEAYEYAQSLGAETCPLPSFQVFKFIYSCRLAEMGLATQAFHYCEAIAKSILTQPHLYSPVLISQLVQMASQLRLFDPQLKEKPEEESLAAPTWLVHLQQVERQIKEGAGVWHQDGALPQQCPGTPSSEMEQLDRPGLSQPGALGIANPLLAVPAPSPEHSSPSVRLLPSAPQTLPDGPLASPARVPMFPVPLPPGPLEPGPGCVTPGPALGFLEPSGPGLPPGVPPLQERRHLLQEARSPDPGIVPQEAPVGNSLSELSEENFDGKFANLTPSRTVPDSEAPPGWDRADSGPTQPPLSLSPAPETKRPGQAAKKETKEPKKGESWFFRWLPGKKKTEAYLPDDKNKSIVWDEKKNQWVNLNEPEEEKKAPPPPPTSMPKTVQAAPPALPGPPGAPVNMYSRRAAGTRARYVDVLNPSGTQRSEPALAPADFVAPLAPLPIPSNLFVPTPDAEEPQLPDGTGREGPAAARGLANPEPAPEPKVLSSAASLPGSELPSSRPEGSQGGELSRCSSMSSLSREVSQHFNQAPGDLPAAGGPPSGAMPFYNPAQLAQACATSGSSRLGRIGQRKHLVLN

How the values were obtained:
EGFP-Sec16A = EGFP-Sec16A (UniProt O15027); assay: co-IP; tagged proteins co-expressed in 293T cells; immunoprecipitation of whole cell extracts and immunoblot
FLAG-TRAF2 = target: T1, FLAG-TRAF2 (UniProt Q12933); assay: as above
T1 sequence: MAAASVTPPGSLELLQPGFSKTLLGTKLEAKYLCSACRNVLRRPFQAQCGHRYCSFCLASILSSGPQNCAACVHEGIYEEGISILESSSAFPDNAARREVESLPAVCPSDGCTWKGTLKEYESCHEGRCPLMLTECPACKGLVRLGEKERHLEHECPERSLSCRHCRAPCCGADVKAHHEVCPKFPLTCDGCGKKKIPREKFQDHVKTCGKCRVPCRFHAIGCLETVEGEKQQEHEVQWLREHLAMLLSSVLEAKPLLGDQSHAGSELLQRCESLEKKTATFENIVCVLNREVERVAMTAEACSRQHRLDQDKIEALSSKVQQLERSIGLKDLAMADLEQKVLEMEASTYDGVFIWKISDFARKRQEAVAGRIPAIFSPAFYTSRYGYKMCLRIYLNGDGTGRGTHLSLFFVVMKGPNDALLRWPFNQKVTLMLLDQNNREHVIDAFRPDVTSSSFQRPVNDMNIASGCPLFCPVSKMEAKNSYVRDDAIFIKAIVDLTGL

B1: Myc-p115 (protein, UniProt O60763 1-962)
chain: MNFLRGVMGGQSAGPQHTEAETIQKLCDRVASSTLLDDRRNAVRALKSLSKKYRLEVGIQAMEHLIHVLQTDRSDSEIIGYALDTLYNIISNEEEEEVEENSTRQSEDLGSQFTEIFIKQQENVTLLLSLLEEFDFHVRWPGVKLLTSLLKQLGPQVQQIILVSPMGVSRLMDLLADSREVIRNDGVLLLQALTRSNGAIQKIVAFENAFERLLDIISEEGNSDGGIVVEDCLILLQNLLKNNNSNQNFFKEGSYIQRMKPWFEVGDENSGWSAQKVTNLHLMLQLVRVLVSPTNPPGATSSCQKAMFQCGLLQQLCTILMATGVPADILTETINTVSEVIRGCQVNQDYFASVNAPSNPPRPAIVVLLMSMVNERQPFVLRCAVLYCFQCFLYKNQKGQGEIVSTLLPSTIDATGNSVSAGQLLCGGLFSTDSLSNWCAAVALAHALQENATQKEQLLRVQLATSIGNPPVSLLQQCTNILSQGSKIQTRVGLLMLLCTWLSNCPIAVTHFLHNSANVPFLTGQIAENLGEEEQLVQGLCALLLGISIYFNDNSLESYMKEKLKQLIEKRIGKENFIEKLGFISKHELYSRASQKPQPNFPSPEYMIFDHEFTKLVKELEGVITKAIYKSSEEDKKEEEVKKTLEQHDNIVTHYKNMIREQDLQLEELRQQVSTLKCQNEQLQTAVTQQVSQIQQHKDQYNLLKIQLGKDNQHQGSYSEGAQMNGIQPEEIGRLREEIEELKRNQELLQSQLTEKDSMIENMKSSQTSGTNEQSSAIVSARDSEQVAELKQELATLKSQLNSQSVEITKLQTEKQELLQKTEAFAKSVEVQGETETIIATKTTDVEGRLSALLQETKELKNEIKALSEERTAIKEQLDSSNSTIAILQTEKDKLELEITDSKKEQDDLLVLLADQDQKILSLKNKLKDLGHPVEEEDELESGDQEDEDDESEDPGKDLDHI
Q: Which binding (EGFP-Sec16A) does the source give for B1 here?
A: binds

Q: And the binding (FLAG-TRAF2)?
A: no binding
